This is an account of results in publication PMC12370185.

The list shows a part of the results. At the low end of the ranking the order means little.

The experiment concerns c-MYC + MAX + histone octamer. Kind of experiment: Pioneer-seq (competitive nucleosome EMSA with sequencing). To be noted: 10 mM Tris-Cl pH 7.5, 50 mM NaCl, 1 mM DTT, 0.25 mg/ml BSA, 2 mM MgCl2, 0.025% Nonidet P-40, 5% glycerol; 28 nM nucleosome library; 10 min on ice then 30 min …; high values mean tight binding; double strand, one strand shown.
As for “GATGGACCCTATACGCGGCACACATCAGGAAAGATGGCAAGCAGAACGAGAACTAGTGCTACAAAAAGTGATCTCACTGTAACAGCATGGGTGGGCCTGGAAGTCAGTTCTCATGCAACCCCATTAGTTCTAGAAAGTTCTCATATGACTAAGAAAAAGCTGACAGGAATCAAACAGATTTCATCATTAAGCAAACAGAAAACATCAAGTTGCCAGTCGGATAGTGTTCC”, the binding signal (log2 relative supershift) is -0.331.

Consider “GATGGACCCTATACGCGGCCAATAAGGGTGGTCTGGTGCCTTGCTCCAAAAGGCCTTATCAGTAGACCTGAGACGATGGGCTGGGTTGTCTTCATTAACCTCTGAAAGCATGCCTGGGGAAGAAGGGACCAGCCTGGGCTCCGAAGGCCTCCTCAGAACAAGACCCTGCTTGTCCAAGTGCCTCACTCCCGGGTGGCTTGATTTCCAGGATGCCAGTCGGATAGTGTTCC”, for which the binding signal (log2 relative supershift) is -0.155.

With “GATGGACCCTATACGCGGCTTCTCTTTCTCCCTGCCTCCACCAGCCCAGACCCCACCCCACCTCCTGTAAACCAGGGGCAGCAGGGGAGGGACGCTTTGCAGAGCAGTGCAAGTACAGACAAGTGCGTCGCTGAATCTGTGATCAGTGCTGGGGGCCCCTCAGGGCTGCCTGTACCTGGGTGGGGTGGGACATCACCAGCCCATAGCCCATGCCAGTCGGATAGTGTTCC”, the binding signal (log2 relative supershift) is -0.0361.

Take “GATGGACCCTATACGCGGCTGAAATTTTCCAGAGTTGCTCGGGGATGTCACTCGAATGGAACATTTGGGAGACTGCCAAGACCCATTTGTCAGCATGTACAGGCCTGCCCTGAGAGACCACAAATGATGGGAACTCTTGAAAGGTCTAGGGCAGTAGCCTCCAAGATAGGTCACTCCTATTCCCTGGATTCACAGCCAGCAAGAGCAGTATGCCAGTCGGATAGTGTTCC”: the binding signal (log2 relative supershift) is -0.108.
